Source: the supplement of paper PMC12819154, “High-throughput peptide-centric local stability assay extends protein–ligand identification to membrane proteins, tissues and bacteria” (Nature Structural & Molecular Biology, 2025)
The entries are a selection whose mix differs from that of the whole data set. Most values lie at the level of the controls, where differences are scatter.

Amino acid sequences for entries named in this document (tags omitted). A change or cut given only in a name is not applied to a line headed by its entry.
UniProt P0ABF6: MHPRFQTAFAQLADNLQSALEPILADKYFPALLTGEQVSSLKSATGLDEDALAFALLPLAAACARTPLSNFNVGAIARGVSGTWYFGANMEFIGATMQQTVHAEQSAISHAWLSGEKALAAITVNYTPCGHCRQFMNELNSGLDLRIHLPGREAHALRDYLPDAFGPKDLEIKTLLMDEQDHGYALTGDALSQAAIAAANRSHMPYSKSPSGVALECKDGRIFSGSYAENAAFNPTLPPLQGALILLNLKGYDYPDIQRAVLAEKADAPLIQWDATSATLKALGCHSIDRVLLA
UniProt P0ABL3: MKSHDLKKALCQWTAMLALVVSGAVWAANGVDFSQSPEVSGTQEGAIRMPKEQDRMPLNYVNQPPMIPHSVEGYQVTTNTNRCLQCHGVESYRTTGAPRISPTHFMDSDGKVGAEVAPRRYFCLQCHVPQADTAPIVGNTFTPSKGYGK
UniProt P0ABR5: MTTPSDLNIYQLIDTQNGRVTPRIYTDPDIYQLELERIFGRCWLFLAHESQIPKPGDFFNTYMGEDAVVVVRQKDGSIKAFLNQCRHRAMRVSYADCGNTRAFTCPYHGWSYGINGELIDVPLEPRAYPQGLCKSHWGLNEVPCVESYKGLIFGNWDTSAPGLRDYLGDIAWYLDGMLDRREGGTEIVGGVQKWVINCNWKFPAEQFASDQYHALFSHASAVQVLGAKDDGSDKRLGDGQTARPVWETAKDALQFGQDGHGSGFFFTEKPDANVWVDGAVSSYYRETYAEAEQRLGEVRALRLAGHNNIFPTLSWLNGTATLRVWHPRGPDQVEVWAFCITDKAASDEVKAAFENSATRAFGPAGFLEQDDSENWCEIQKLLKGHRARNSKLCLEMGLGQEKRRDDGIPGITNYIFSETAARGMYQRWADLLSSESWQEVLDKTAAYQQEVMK
UniProt P0ABU5: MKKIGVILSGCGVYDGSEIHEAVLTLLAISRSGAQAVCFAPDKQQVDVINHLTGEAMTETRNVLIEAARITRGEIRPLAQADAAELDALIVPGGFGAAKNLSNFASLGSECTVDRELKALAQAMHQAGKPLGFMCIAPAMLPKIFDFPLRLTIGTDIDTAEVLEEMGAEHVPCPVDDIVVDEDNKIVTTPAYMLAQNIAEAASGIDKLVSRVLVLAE
UniProt P0ABZ4: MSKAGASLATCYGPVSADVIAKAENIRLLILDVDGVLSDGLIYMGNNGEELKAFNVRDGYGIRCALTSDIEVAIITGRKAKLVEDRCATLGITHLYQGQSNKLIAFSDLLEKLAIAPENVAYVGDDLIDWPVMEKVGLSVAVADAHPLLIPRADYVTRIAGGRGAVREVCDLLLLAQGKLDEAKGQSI
UniProt P0AC51: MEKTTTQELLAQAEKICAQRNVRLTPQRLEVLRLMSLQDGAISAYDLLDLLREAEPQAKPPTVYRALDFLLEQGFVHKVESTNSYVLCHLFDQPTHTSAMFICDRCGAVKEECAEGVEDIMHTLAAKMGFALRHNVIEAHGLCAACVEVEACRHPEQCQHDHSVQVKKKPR
UniProt P0ACK2: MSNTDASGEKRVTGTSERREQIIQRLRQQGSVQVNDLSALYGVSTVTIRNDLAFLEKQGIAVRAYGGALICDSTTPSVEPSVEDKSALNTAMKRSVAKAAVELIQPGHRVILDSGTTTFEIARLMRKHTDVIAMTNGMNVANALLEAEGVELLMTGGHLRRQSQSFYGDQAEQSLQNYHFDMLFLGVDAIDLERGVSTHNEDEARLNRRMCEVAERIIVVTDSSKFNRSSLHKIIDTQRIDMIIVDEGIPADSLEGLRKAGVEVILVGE
UniProt P0ACK8: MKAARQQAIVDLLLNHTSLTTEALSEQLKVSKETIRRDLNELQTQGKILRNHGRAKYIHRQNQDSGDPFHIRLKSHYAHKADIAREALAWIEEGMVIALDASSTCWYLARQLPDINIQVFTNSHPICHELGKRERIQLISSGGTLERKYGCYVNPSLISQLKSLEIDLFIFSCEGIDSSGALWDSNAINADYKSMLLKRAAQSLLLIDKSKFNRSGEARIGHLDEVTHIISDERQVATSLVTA
UniProt P0ACL7: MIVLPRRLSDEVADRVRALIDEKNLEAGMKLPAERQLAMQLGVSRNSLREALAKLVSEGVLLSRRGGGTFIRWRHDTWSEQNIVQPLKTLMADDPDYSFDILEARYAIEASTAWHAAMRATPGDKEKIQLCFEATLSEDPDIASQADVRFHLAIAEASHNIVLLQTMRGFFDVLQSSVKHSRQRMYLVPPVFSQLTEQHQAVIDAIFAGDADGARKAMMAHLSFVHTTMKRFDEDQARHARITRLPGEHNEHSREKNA
UniProt P0ACM2: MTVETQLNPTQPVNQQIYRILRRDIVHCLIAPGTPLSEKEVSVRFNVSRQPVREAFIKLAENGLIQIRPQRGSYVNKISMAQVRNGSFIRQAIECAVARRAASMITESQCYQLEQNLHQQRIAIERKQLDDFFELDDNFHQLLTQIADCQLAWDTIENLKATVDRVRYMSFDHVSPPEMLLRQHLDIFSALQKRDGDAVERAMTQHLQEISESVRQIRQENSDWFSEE
UniProt P0ACR7: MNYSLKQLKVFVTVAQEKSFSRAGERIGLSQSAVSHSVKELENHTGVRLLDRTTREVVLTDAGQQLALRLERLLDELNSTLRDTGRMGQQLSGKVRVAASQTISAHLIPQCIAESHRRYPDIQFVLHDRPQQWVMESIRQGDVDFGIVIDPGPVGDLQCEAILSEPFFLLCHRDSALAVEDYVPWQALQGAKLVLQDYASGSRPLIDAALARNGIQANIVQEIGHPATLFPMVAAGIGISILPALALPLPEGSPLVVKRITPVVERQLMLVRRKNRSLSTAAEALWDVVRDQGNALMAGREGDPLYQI
UniProt P0ACU5: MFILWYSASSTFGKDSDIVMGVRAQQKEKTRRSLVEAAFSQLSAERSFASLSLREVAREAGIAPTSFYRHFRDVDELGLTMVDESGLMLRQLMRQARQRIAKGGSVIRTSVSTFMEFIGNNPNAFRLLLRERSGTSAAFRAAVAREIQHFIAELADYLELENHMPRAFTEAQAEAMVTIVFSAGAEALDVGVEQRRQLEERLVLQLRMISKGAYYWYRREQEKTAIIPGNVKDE
UniProt P0ACV2: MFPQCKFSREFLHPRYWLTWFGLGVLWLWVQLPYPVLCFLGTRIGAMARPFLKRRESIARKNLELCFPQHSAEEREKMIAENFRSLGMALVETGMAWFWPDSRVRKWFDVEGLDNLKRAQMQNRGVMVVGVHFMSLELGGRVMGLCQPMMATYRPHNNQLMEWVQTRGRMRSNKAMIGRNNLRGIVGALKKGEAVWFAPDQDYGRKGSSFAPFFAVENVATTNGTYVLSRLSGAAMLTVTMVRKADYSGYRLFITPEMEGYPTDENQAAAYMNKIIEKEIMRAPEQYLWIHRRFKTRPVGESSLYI
UniProt P0ACV4: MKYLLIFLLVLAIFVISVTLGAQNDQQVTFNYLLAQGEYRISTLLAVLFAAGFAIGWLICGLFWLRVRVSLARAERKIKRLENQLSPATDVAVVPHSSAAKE
UniProt P0AD42: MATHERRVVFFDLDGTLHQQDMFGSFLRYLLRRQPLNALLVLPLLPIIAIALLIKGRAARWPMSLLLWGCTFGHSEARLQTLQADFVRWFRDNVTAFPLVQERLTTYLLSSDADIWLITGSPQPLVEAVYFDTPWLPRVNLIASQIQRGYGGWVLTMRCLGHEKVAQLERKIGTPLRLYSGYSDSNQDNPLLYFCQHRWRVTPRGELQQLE
UniProt P0AD44: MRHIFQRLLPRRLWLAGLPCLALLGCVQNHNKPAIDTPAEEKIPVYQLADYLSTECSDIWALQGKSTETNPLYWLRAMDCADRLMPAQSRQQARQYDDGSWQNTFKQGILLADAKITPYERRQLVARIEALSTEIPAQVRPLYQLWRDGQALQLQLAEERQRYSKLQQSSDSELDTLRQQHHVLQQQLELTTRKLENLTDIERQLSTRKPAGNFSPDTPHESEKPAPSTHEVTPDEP
UniProt P0ADJ3: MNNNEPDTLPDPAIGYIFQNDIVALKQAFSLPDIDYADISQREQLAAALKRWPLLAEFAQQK
UniProt P0ADX7: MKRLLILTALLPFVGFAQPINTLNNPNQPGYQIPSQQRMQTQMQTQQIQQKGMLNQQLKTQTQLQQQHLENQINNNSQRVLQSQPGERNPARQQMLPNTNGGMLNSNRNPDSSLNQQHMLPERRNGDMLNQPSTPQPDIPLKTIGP
UniProt P0AE28: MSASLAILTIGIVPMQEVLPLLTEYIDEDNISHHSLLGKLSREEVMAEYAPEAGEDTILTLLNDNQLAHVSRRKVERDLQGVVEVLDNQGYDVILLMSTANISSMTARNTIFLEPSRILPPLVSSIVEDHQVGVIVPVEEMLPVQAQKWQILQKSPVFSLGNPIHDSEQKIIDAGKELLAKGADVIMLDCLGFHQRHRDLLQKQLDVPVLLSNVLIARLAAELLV
UniProt P0AE58: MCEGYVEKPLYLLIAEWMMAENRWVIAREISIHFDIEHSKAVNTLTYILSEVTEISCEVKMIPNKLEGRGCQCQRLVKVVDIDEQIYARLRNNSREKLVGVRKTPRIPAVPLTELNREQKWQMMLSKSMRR
UniProt P0AED5: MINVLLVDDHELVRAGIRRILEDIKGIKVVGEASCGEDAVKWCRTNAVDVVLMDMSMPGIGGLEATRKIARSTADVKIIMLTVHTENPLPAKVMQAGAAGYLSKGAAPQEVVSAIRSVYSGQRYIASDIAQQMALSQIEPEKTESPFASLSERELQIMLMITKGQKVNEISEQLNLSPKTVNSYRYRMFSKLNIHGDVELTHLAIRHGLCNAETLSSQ
UniProt P0AEG4: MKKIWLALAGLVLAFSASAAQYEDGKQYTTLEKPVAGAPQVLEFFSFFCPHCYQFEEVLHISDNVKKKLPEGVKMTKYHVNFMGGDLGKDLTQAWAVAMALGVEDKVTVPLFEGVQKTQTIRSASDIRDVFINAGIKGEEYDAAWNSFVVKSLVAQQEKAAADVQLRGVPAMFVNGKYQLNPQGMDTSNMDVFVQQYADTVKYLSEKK
UniProt P0AEM4: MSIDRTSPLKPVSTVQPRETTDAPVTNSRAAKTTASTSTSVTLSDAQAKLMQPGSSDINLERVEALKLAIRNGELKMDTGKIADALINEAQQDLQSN

Tests used:
Assay in all cases: log2 fold change of tryptic peptide abundance, ligand vs vehicle (limited proteolysis) (log2 ratio); higher = more trypsin-susceptible (destabilized)
UniProt P0ABF6 = details: peptide sequence: SPSGVALECK; peptide start residue: 209; ligand concentration: 5 mM; sample: E. coli desalted lysate; replicate design: treated before aliquoting
Procedure: (§1)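 HT-PELSA: desalted E. coli K-12 BW25113 lysate (with 12 mM MgCl2) incubated with 5 mM ATP (pH 7) or water for 30 min at 25 C, then a 4 min trypsin pulse at 22 C. Peptides were quantified by DIA-MS (4 replicates). Value is the peptide log2 fold change (treated/control); negative = stabilized. Scale: negative = ligand-stabilized region.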

UniProt P0ABL3 = details: peptide sequence: ISPTHFMDSDGK; peptide start residue: 100; ligand concentration: 5 mM; sample: E. coli desalted lysate; replicate design: treated before aliquoting
Procedure: as §1

UniProt P0ABR5 = details: peptide sequence: VSYADCGNTR; peptide start residue: 92; ligand concentration: 5 mM; sample: E. coli desalted lysate; replicate design: treated before aliquoting
Procedure: as §1

UniProt P0ABU5 = details: peptide sequence: IFDFPLR; peptide start residue: 144; ligand concentration: 5 mM; sample: E. coli desalted lysate; replicate design: treated before aliquoting
Procedure: as §1

UniProt P0ABZ4 = details: peptide sequence: EVCDLLLLAQGK; peptide start residue: 168; ligand concentration: 5 mM; sample: E. coli desalted lysate; replicate design: treated before aliquoting
Procedure: as §1

UniProt P0AC51 = details: peptide sequence: EAEPQAKPPTVYR; peptide start residue: 53; ligand concentration: 5 mM; sample: E. coli desalted lysate; replicate design: treated before aliquoting
Procedure: as §1

UniProt P0ACD8 = details: peptide sequence: WRGNAMEVGPLAR; peptide start residue: 403; ligand concentration: 5 mM; sample: E. coli desalted lysate; replicate design: treated before aliquoting
Procedure: as §1

UniProt P0ACK2 = details: peptide sequence: MCEVAER; peptide start residue: 210; ligand concentration: 5 mM; sample: E. coli desalted lysate; replicate design: treated before aliquoting
Procedure: as §1

UniProt P0ACK8 = details: peptide sequence: KYGCYVNPSLISQLK; peptide start residue: 148; ligand concentration: 5 mM; sample: E. coli desalted lysate; replicate design: treated before aliquoting
Procedure: as §1

UniProt P0ACL7 = details: peptide sequence: RLSDEVADR; peptide start residue: 7; ligand concentration: 5 mM; sample: E. coli desalted lysate; replicate design: treated before aliquoting
Procedure: as §1

UniProt P0ACM2 = details: peptide sequence: RDIVHCLIAPGTPLSEKEVSVR; peptide start residue: 23; ligand concentration: 5 mM; sample: E. coli desalted lysate; replicate design: treated before aliquoting
Procedure: as §1

UniProt P0ACR7 = details: peptide sequence: VFVTVAQEK; peptide start residue: 10; ligand concentration: 5 mM; sample: E. coli desalted lysate; replicate design: treated before aliquoting
Procedure: as §1

UniProt P0ACU5 = details: peptide sequence: SFASLSLR; peptide start residue: 47; ligand concentration: 5 mM; sample: E. coli desalted lysate; replicate design: treated before aliquoting
Procedure: as §1

UniProt P0ACV2 = details: peptide sequence: IGAMARPFLK; peptide start residue: 44; ligand concentration: 5 mM; sample: E. coli desalted lysate; replicate design: treated before aliquoting
Procedure: as §1

UniProt P0ACV4 = details: peptide sequence: RLENQLSPATDVAVVPHSSAAKE; peptide start residue: 80; ligand concentration: 5 mM; sample: E. coli desalted lysate; replicate design: treated before aliquoting
Procedure: as §1

UniProt P0AD42 = details: peptide sequence: VNLIASQIQR; peptide start residue: 139; ligand concentration: 5 mM; sample: E. coli desalted lysate; replicate design: treated before aliquoting
Procedure: as §1

UniProt P0AD44 = details: peptide sequence: QQHHVLQQQLELTTR; peptide start residue: 179; ligand concentration: 5 mM; sample: E. coli desalted lysate; replicate design: treated before aliquoting
Procedure: as §1

UniProt P0ADJ3 = details: peptide sequence: EQLAAALKR; peptide start residue: 43; ligand concentration: 5 mM; sample: E. coli desalted lysate; replicate design: treated before aliquoting
Procedure: as §1

UniProt P0ADX7 = details: peptide sequence: VLQSQPGERNPAR; peptide start residue: 80; ligand concentration: 5 mM; sample: E. coli desalted lysate; replicate design: treated before aliquoting
Procedure: as §1

UniProt P0AE28 = details: peptide sequence: NTIFLEPSR; peptide start residue: 109; ligand concentration: 5 mM; sample: E. coli desalted lysate; replicate design: treated before aliquoting
Procedure: as §1

UniProt P0AE58 = details: peptide sequence: IPAVPLTELNR; peptide start residue: 107; ligand concentration: 5 mM; sample: E. coli desalted lysate; replicate design: treated before aliquoting
Procedure: as §1

UniProt P0AED5 = details: peptide sequence: VVGEASCGEDAVKWCR; peptide start residue: 29; ligand concentration: 5 mM; sample: E. coli desalted lysate; replicate design: treated before aliquoting
Procedure: as §1

UniProt P0AEG4 = details: peptide sequence: SLVAQQEK; peptide start residue: 152; ligand concentration: 5 mM; sample: E. coli desalted lysate; replicate design: treated before aliquoting
Procedure: as §1

UniProt P0AEM4 = details: peptide sequence: ETTDAPVTNSR; peptide start residue: 19; ligand concentration: 5 mM; sample: E. coli desalted lysate; replicate design: treated before aliquoting
Procedure: as §1
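Note: lysate desalted by size exclusion to strip endogenous ATP, peptide intensities built from DIA-NN precursor signals, and peptides missing any value discarded before comparison.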

Nc1ncnc2c1ncn2[C@@H]1O[C@H](COP(=O)(O)OP(=O)(O)OP(=O)(O)O)[C@@H](O)[C@H]1O [adenosine 5'-triphosphate]
log2 fold change (UniProt P0ABF6): 0.246 | log2 fold change (UniProt P0ABL3): -0.157 | log2 fold change (UniProt P0ABR5): -0.599 | log2 fold change (UniProt P0ABU5): -0.08 | log2 fold change (UniProt P0ABZ4): 0.391 | log2 fold change (UniProt P0AC51): -0.154 | log2 fold change (UniProt P0ACD8): 0.892 | log2 fold change (UniProt P0ACK2): 0.393 | log2 fold change (UniProt P0ACK8): 0.372 | log2 fold change (UniProt P0ACL7): 0.936 | log2 fold change (UniProt P0ACM2): 0.435 | log2 fold change (UniProt P0ACR7): 0.106 | log2 fold change (UniProt P0ACU5): 0.541 | log2 fold change (UniProt P0ACV2): 0.168 | log2 fold change (UniProt P0ACV4): -0.463 | log2 fold change (UniProt P0AD42): -0.243 | log2 fold change (UniProt P0AD44): -0.271 | log2 fold change (UniProt P0ADJ3): -0.328 | log2 fold change (UniProt P0ADX7): 0.188 | log2 fold change (UniProt P0AE28): -0.0534 | log2 fold change (UniProt P0AE58): 0.136 | log2 fold change (UniProt P0AED5): -0.297 | log2 fold change (UniProt P0AEG4): -0.147 | log2 fold change (UniProt P0AEM4): 0.0633
